In PubChem BioAssay AID2586 (Broad Institute, 2010) one finds activity change, negative = cytotoxic data, which are given here for 1 compound.

This experiment is described as follows: Mouse fibroblast viability counterscreen for T. cruzi invasion hits, CellTiter-Glo, confirmatory (AID 2586). Particulars: NIH3T3 viability, ATP luminescence (CellTiter-Glo), 90 h; at 19.5 µM (top of the series). Background: The purpose of a counterscreen is to sort out artefacts and off-target activity.

The list shows a part of the results. Potency and affinity values are given separately. Where no call is shown, the source marks the result inconclusive.

`CC1CCCN(C(=O)Cc2cn(Cc3cccc(Cl)c3)c3ccccc23)C1` (stereo unspecified) returned an activity change, negative = cytotoxic of 9.1.
